Data source: PubChem BioAssay AID652272 (Drosophila RNAi Screening Center, 2013)
The screen tested about 21,000 reagents; this is a random part of those that have a named target and a result. Over the whole deposit, 503 (2.4%) got an active call. 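Raw plate light values, not normalised; calls rest on replicate z-scores that were not deposited; hits include reporter decreases as well as increases.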 Unmarked entries are inactive. Reagent sequences are not shown. Not stated in the record: the amount of reagent, the time to read-out.

- Screen: 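Genes whose knock-down decreases or increases Hedgehog reporter output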 (primary screen)
- Cells: Drosophila clone 8 (Cl8) cells
- Knock-down reagent: long dsRNA against Drosophila genes
- Measurement: 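Plate reader light from a firefly reporter under a ptc promoter fragment that responds to Hedgehog, with Renilla light as transfection reference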
- Scale: firefly Hh reporter signal: higher = more ptc reporter light; Renilla reference signal: higher = more Renilla control light
- Hit rule: 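Hit when the z-score averaged over two replicates is under -2 or over +3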
- Calls: active = hit: reporter lowered or raised; inactive = not a hit

no.	Gene	amplicon	firefly Hh reporter signal, replicate 1	firefly Hh reporter signal, replicate 2	firefly Hh reporter signal, replicate 3	Renilla reference signal, replicate 1	Renilla reference signal, replicate 2
1	CG3270	DRSC04988	1.26e5	59203		4584	2347
2	CG1638	DRSC15132	92929	2.54e5		2793	9403
3	snama	DRSC04049	97997	42538		4643	2103
4	CG40378 (retired record)	DRSC20958	4.88e5	1.78e5		31220	4261
5	Der-2	DRSC15021	70208	82483		2794	919
6	Shrm	DRSC06437	54610	47607		1306	3146
7	Shrm	DRSC06438	93124	57347		2392	4561
8	Shrm	DRSC07221	82400	67206		3297	2592
9	CG12325	DRSC06130	88040	52573		3645	2154
10	Gcn5	DRSC11248	67211	49220		3542	2337
11	TwdlZ	DRSC19154	6.39e5	2.23e5		38819	5367
12	CG4928	DRSC19342	67936	69180		1600	1504
13	capu	DRSC00208	5.67e5	1.46e5		29960	6371
14	capu	DRSC00209	5.26e5 (active)	1.34e5		32690	8485
15	capu	DRSC00434	1.34e5	57637		3344	5819
16	capu	DRSC00807	1.14e5	1.13e5		4268	5117
17	TORIP	DRSC10104	60605	46560		3218	2536
18	CG8097	DRSC20079	61446	1.47e5		1825	6018
19	hbt	DRSC01310	5.00e5	4.00e5		25209	13192
20	hbt	DRSC02549	90637	60728		2327	5788
21	Gprk1	DRSC20732	6.41e5	2.28e5		36266	5575
22	Gprk1	DRSC20916	6.41e5	3.34e5		22688	7141
23	Met	DRSC20284	75942	3.00e5		2162	10973
24	SNF4Agamma	DRSC13461	2395	2.29e5		507	5432
25	SNF4Agamma	DRSC13463	49152	2.48e5		10605	5799
26	SNF4Agamma	DRSC15879	6.76e5	97714		42668	490
27	SNF4Agamma	DRSC16847	88491	80055		3176	2533
28	CG10904	DRSC04084	1.08e5	68167		3107	5639
29	CG13502	DRSC04147	88012	44930		2432	4457
30	CG33306	DRSC01899	55447	30602		2619	1449
31	sens	DRSC09263	31136			1504	
32	Aladin	DRSC18121	96854	74448		2505	1872
33	mbt	DRSC20348	69492	1.18e5		2404	4893
34	CG5866	DRSC15900	58032	59909		1494	1360
35	otp	DRSC04050	77690	48284		1776	3777
36	otp	DRSC04707	82637	30920		2076	2707
37	CG4318	DRSC19887	85866	3.00e5		2221	11060
38	CG31142	DRSC13647	51265	1.90e5		12529	4764
39	CG7966	DRSC16356	1.15e5	82716		4155	3389
40	CG13116	DRSC02214	1.74e5	6.11e5	1.46e5	4333	34717
41	Or35a	DRSC03389	1.05e5	69782		2865	6278
42	svr	DRSC17293	4.37e5	1.91e5		21090	3847
43	svr	DRSC18841	1.47e5	2.73e5		5937	11556
44	CG1640	DRSC19750	1.06e5	88581		3270	2016
45	sim	DRSC17054	69736	73261		2218	2099
46	mthl8	DRSC08211	91872	71992		3880	2832
47	mthl8	DRSC08311	99120	49267		3088	4058
48	CG5112	DRSC15718	1.01e5	1.03e5		1964	2896
49	CG7024	DRSC18414	60210	1.18e5		1889	5316
50	CG4658	DRSC02768	65509	41289		1504	3547
51	Arp8	DRSC20059	1.46e5	1.17e5		2772	2704
52	Nf1	DRSC16758	98233	77779		2277	2119
53	homer	DRSC03547	63609	54627		2560	2128
54	Hr96	DRSC16707	93479	98839		3984	4136
55	CG14316	DRSC14795	5.14e5	66236		26452	1881
56	l(2)05714	DRSC03118	70845	40038		3553	2344
57	SmD1	DRSC09800	43533	32432	68952	3680	4900

Part of the list above, set out differently.
| Gene | amplicon | firefly Hh reporter signal, replicate 1 | firefly Hh reporter signal, replicate 2 | firefly Hh reporter signal, replicate 3 | Renilla reference signal, replicate 1 | Renilla reference signal, replicate 2 |
| --- | --- | --- | --- | --- | --- | --- |
| CG31142 | DRSC13647 | 51265 | 1.90e5 | – | 12529 | 4764 |
| CG7966 | DRSC16356 | 1.15e5 | 82716 | – | 4155 | 3389 |
| CG13116 | DRSC02214 | 1.74e5 | 6.11e5 | 1.46e5 | 4333 | 34717 |
| Or35a | DRSC03389 | 1.05e5 | 69782 | – | 2865 | 6278 |
| svr | DRSC17293 | 4.37e5 | 1.91e5 | – | 21090 | 3847 |
| svr | DRSC18841 | 1.47e5 | 2.73e5 | – | 5937 | 11556 |
| CG1640 | DRSC19750 | 1.06e5 | 88581 | – | 3270 | 2016 |
